# In the supplement of paper PMC10849652:
# By UniProt entry, the sequences of proteins in these tests, tags left out. Where a name states a change or a piece, a line headed by the entry shows the natural chain unless it says otherwise.
# UniProt Q8WWC4: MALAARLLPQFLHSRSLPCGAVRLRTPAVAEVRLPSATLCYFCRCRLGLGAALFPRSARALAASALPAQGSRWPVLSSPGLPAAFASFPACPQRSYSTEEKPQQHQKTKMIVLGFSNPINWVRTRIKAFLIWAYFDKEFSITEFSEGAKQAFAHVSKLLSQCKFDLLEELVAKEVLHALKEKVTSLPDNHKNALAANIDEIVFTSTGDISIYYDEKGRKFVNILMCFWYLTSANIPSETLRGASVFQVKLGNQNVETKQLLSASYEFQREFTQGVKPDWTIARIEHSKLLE
# UniProt Q9UPT6: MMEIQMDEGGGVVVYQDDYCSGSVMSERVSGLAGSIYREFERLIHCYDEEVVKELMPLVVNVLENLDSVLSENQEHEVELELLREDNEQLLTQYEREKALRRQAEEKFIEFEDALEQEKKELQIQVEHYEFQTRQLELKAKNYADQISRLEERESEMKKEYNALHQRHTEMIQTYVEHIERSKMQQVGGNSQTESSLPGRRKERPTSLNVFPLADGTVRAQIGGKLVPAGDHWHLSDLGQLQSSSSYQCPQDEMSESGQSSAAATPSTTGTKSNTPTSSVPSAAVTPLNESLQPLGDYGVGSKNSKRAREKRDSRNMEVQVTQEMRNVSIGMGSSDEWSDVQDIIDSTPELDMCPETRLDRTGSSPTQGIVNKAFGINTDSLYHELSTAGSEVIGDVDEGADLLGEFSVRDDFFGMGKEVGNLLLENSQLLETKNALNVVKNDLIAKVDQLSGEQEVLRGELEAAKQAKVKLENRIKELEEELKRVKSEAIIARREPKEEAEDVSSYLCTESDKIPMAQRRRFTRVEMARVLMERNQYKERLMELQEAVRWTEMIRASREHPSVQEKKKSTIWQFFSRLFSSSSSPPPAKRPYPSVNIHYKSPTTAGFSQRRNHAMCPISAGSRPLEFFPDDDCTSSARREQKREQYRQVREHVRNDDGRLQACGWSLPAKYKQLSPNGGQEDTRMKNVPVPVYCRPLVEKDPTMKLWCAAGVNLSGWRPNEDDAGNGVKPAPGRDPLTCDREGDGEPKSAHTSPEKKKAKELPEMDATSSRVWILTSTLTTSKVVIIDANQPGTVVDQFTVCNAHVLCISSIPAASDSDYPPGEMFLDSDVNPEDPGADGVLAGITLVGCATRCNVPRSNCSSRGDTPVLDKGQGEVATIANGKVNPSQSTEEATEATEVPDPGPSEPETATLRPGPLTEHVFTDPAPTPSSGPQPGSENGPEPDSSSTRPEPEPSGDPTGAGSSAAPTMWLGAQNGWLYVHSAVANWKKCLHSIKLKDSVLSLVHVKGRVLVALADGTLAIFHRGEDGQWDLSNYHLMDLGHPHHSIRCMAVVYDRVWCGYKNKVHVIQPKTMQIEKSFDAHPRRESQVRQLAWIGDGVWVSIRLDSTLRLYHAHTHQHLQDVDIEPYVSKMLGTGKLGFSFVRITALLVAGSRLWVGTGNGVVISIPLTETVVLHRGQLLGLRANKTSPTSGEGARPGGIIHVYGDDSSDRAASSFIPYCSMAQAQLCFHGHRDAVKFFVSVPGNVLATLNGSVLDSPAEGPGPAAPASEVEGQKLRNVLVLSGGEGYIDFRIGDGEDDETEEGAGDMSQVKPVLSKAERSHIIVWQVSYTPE
# UniProt O43318: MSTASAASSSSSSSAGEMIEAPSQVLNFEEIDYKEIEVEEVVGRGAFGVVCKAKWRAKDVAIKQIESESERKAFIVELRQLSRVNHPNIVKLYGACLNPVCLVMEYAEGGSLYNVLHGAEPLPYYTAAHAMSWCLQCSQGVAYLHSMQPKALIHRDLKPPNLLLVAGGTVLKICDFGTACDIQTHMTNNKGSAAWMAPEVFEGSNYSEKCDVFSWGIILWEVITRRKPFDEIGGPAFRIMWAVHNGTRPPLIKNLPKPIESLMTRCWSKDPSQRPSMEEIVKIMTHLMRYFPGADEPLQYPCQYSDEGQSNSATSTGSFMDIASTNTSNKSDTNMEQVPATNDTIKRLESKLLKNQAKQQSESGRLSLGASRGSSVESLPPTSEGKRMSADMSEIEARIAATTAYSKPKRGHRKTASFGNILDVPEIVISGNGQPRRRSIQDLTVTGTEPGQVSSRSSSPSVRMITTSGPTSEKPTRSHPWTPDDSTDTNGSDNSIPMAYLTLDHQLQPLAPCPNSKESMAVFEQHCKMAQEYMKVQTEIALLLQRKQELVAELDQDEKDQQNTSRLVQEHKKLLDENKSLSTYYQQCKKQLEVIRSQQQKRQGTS
# UniProt Q9NQ29: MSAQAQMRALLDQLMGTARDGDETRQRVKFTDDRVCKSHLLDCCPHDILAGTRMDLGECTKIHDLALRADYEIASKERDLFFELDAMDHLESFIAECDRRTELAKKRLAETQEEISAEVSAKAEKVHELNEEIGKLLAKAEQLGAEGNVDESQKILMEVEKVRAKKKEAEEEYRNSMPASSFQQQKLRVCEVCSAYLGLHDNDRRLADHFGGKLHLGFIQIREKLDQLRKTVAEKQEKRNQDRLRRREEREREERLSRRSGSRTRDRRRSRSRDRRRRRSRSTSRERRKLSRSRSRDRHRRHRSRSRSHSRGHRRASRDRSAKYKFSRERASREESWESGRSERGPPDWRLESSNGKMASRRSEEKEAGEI
# UniProt Q16706: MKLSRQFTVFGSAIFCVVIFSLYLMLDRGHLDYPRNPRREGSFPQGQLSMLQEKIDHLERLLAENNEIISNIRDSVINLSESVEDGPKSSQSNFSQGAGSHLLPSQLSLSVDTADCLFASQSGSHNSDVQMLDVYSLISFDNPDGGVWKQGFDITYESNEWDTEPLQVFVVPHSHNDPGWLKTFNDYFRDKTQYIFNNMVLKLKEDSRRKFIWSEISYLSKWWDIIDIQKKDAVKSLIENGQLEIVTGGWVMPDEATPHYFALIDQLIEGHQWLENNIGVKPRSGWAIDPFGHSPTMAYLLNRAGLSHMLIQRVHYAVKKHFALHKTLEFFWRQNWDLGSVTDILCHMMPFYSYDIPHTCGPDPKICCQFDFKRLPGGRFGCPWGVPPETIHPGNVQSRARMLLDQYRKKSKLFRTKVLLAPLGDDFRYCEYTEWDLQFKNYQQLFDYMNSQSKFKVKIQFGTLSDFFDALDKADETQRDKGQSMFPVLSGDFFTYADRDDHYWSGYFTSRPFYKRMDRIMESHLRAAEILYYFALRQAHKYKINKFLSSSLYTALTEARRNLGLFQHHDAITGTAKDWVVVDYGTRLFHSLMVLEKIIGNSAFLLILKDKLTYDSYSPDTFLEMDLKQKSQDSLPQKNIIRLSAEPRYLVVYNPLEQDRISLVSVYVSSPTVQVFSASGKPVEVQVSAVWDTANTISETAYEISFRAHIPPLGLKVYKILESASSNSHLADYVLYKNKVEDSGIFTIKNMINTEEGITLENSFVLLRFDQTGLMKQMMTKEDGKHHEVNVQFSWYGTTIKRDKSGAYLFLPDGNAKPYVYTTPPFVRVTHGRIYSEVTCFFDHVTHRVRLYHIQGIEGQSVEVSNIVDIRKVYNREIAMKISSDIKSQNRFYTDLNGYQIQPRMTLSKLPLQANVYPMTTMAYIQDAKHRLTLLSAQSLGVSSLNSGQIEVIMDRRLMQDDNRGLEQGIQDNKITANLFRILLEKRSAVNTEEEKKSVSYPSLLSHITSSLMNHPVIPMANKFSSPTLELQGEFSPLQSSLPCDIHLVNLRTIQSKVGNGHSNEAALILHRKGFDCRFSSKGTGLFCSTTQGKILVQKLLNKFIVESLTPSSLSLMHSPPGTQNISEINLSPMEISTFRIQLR
# UniProt O14733: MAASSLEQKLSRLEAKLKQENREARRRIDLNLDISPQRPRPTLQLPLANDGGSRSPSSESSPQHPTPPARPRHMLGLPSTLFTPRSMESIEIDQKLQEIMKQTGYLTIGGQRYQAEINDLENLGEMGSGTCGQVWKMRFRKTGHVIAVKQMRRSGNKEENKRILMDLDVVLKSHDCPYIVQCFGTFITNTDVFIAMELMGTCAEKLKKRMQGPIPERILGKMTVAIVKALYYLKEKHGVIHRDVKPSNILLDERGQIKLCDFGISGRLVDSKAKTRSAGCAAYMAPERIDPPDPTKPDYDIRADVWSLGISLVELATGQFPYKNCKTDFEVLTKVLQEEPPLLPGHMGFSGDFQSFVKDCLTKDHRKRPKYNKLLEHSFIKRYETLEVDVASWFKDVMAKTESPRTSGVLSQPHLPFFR
# UniProt Q66K74: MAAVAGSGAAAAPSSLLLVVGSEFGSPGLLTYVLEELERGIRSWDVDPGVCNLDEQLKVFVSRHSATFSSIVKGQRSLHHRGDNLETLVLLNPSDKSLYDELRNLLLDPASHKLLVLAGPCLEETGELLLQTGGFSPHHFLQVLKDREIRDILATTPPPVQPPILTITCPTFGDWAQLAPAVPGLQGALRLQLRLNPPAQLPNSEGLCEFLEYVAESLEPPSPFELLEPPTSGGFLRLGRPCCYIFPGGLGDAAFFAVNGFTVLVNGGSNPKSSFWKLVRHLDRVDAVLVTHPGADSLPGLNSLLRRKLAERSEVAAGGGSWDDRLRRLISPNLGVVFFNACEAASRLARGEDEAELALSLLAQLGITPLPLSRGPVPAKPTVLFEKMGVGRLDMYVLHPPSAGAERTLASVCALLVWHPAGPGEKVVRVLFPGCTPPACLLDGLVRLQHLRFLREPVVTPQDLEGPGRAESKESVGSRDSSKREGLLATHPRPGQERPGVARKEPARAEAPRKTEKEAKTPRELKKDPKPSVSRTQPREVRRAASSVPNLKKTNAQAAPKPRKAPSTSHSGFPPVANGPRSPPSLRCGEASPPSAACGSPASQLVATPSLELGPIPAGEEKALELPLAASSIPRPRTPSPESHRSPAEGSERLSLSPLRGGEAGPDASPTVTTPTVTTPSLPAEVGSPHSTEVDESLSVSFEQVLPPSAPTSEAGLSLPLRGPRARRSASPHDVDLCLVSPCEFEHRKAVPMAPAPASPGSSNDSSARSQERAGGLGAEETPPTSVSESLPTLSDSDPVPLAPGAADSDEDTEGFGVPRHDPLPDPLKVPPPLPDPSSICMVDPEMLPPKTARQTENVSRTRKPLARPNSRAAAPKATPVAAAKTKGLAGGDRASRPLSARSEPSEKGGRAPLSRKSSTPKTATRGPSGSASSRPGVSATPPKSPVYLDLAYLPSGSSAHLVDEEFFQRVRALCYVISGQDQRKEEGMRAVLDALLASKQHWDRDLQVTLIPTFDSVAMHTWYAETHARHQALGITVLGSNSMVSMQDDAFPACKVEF
# UniProt Q96GW9: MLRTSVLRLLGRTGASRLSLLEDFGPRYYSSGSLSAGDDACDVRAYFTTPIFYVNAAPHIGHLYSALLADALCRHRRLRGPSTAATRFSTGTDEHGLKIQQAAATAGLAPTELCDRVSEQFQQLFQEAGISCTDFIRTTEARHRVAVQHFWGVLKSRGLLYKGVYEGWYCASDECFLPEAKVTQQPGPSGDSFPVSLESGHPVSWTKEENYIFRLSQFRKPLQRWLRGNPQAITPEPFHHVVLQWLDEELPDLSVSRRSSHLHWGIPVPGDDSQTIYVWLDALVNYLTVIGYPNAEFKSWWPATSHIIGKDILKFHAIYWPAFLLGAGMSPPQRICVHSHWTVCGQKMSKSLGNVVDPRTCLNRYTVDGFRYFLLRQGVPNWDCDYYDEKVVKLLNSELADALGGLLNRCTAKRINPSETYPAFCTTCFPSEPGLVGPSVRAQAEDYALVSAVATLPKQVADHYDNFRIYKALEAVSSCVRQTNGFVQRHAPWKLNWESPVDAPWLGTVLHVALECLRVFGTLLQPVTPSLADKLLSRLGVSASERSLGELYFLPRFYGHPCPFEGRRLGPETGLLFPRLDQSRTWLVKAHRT
# UniProt P49006: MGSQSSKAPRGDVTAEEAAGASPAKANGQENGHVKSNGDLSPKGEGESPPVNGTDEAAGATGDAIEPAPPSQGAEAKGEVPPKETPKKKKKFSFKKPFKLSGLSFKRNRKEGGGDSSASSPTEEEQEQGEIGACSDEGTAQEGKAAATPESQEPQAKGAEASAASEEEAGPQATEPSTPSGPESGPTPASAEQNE
# UniProt Q9UPY8, whole entry, looked up: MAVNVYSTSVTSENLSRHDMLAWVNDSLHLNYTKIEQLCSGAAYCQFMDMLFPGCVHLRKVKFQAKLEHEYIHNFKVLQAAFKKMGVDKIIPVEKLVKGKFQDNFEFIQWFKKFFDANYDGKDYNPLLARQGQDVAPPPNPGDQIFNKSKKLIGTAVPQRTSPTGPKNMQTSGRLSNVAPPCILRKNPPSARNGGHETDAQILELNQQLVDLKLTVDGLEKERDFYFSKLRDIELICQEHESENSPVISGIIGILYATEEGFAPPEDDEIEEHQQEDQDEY
# This is one part of the list.
# Experiments:
# Assay in all cases: log2 fold change, soluble protein after heating vs DMSO (PISA); higher = thermal stabilisation; K562 lysate, 10 uM; active = over 0.2 and 3.5 SD of the protein, either way, in both replicates (recomputed)
# ibrutinib = compound: C=CC(=O)N1CCC[C@@H](n2nc(-c3ccc(Oc4ccccc4)cc3)c3c(N)ncnc32)C1 [ibrutinib]
# In short: (§1)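 Dounce homogenisation of K562 pellets in PBS pH 7.4 with 1 mM MgCl2 produced a crude extract, used at 1 mg/mL protein. Exposure to 10 μM compound lasted 30 min, and aliquots were then heated for 3 min across 48°C-58°C, pooled and brought to 0.5% NP-40 at 4°C. The supernatant after 21,000xg for 90 min was quantified by TMTpro 16plex LC-MS/MS with channel sums equalised. Duplicate values are given as log-two fold change in thermal stability relative to solvent controls.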
# [1] = compound: CC(=O)c1cnc2ccc(-c3cc(Cl)c(O)c(Cl)c3)nc2c1N[C@H]1CC[C@H](CN(C)C)CC1
# In short: as §1
# ralimetinib = compound: CC(C)(C)Cn1c(N)nc2ccc(-c3[nH]c(C(C)(C)C)nc3-c3ccc(F)cc3)nc21 [ralimetinib]
# In short: as §1
# [2] = compound: CC(C)(O)CC(=O)NCCn1ccc2ncnc(Nc3ccc(Oc4cccc(C(F)(F)F)c4)c(Cl)c3)c21
# In short: as §1
# [3] = compound: CC(C)C1=C2N=C(C=C(N2N=C1)NCC3=CC=CC=C3)NCCCCCCN
# In short: as §1
# [4] = compound: CC1=C(C(CC(=O)N1)C2=CC=C(C=C2)C(F)(F)F)C(=O)NC3=C(C=C4C(=C3)C=NN4)F
# In short: as §1
# [5] = compound: CC1=C(C2=C(C=C1)C(=O)C3=CC=CC=C3N2CCCN)C
# In short: as §1
# [6] = compound: CC1=C(C=C(C=C1)NC(=O)C2=CC(=CC=C2)C(C)(C)C#N)NC3=CC4=C(C=C3)N=CN(C4=O)C
# In short: as §1
# [7] = compound: CC1=C(C=C(C=C1)NC(=O)C2=CC(=CC=C2)N(C)C)NC(=O)C3=CC=C(C=C3)O
# In short: as §1
# [8] = compound: CC1=CC=C(C=C1)SC2=C3C=C(SC3=CN=C2)C(=O)N
# In short: as §1
# vemurafenib = compound: CCCS(=O)(=O)Nc1ccc(F)c(C(=O)c2c[nH]c3ncc(-c4ccc(Cl)cc4)cc23)c1F [vemurafenib]
# In short: as §1
# [9] = compound: CCCS(=O)(=O)Nc1ccc(F)c(C(=O)c2c[nH]c3ncc(Cl)cc23)c1F
# In short: as §1
# barasertib = compound: CCN(CCCOc1ccc2c(Nc3cc(CC(=O)Nc4cccc(F)c4)[nH]n3)ncnc2c1)CCOP(=O)(O)O [barasertib]
# In short: as §1
# [10] = compound: CC[C@@H]1C(=O)N(C)c2cnc(Nc3ccc(C(=O)NC4CCN(C)CC4)cc3OC)nc2N1C1CCCC1
# In short: as §1
# volasertib = compound: CC[C@@H]1C(=O)N(C)c2cnc(Nc3ccc(C(=O)N[C@H]4CC[C@H](N5CCN(CC6CC6)CC5)CC4)cc3OC)nc2N1C(C)C [volasertib]
# In short: as §1
# [11] = compound: CCn1c(C(=O)N(C2CC2)C2CC2)cc2c3c(ncn3C)c(Nc3cc(C)n(C)n3)nc21
# In short: as §1
# [12] = compound: CCn1cc(-c2ccnc3[nH]c(-c4cccc(CN(C)C)c4)cc23)c(-c2ccc(NC(=O)N(C)C)cc2)n1
# In short: as §1
# [13] = compound: CN1CCC(CNc2ccc3ncc(-c4cccc(OC(F)(F)F)c4)n3n2)CC1
# In short: as §1
# saracatinib = compound: CN1CCN(CCOc2cc(OC3CCOCC3)c3c(Nc4c(Cl)ccc5c4OCO5)ncnc3c2)CC1 [saracatinib]
# In short: as §1
# sotrastaurin = compound: CN1CCN(c2nc(C3=C(c4c[nH]c5ccccc45)C(=O)NC3=O)c3ccccc3n2)CC1 [sotrastaurin]
# In short: as §1
Target,log2 fold change (ibrutinib),log2 fold change [1],log2 fold change (ralimetinib),log2 fold change [2],log2 fold change [3],log2 fold change [4],log2 fold change [5],log2 fold change [6],log2 fold change [7],log2 fold change [8],log2 fold change (vemurafenib),log2 fold change [9],log2 fold change (barasertib),log2 fold change [10],log2 fold change (volasertib),log2 fold change [11],log2 fold change [12],log2 fold change [13],log2 fold change (saracatinib),log2 fold change (sotrastaurin)
MAP1B (UniProt P46821),inactive: -0.006,inactive: -0.004,inactive: -0.011,inactive: -0.005,inactive: -0.004,inactive: -0.027,inactive: 0,inactive: 0.01,inactive: 0.017,inactive: -0.017,inactive: -0.01,inactive: -0.004,inactive: -0.016,inactive: 0.022,inactive: 0.014,inactive: -0.022,inactive: 0.023,inactive: -0.01,inactive: 0,inactive: 0.012
MAIP1 (UniProt Q8WWC4),inactive: 0.007,inactive: -0.01,inactive: 0.068,inactive: 0.021,inactive: 0.026,inactive: -0.022,inactive: -0.007,inactive: 0.023,inactive: -0.011,inactive: -0.017,inactive: 0.058,inactive: 0.038,inactive: 0.018,inactive: -0.088,inactive: 0.012,inactive: -0.038,inactive: -0.02,inactive: -0.184,inactive: 0.041,inactive: 0.007
MAP2K4 isoform 2 (UniProt P45985),inactive: 0.051,inactive: 0.316,inactive: -0.029,inactive: -0.015,inactive: 0.042,inactive: -0.008,inactive: 0.006,inactive: -0.055,inactive: 0.033,inactive: -0.045,active: 0.601,inactive: 0.243,inactive: 0.09,inactive: -0.127,inactive: -0.01,inactive: 0.04,active: 0.936,inactive: -0.063,inactive: -0.063,inactive: 0.002
MAPK8IP3 (UniProt Q9UPT6),inactive: 0.018,inactive: 0.024,inactive: 0.05,inactive: -0.008,inactive: -0.033,inactive: -0.018,inactive: -0.076,inactive: -0.019,inactive: -0.016,inactive: -0.002,inactive: -0.064,inactive: -0.012,inactive: -0.019,inactive: -0.06,inactive: -0.027,inactive: 0.011,inactive: 0.038,inactive: 0.013,inactive: 0.021,inactive: 0.069
MAP3K7 (UniProt O43318),inactive: 0.04,inactive: 0.088,inactive: 0,inactive: 0.012,inactive: 0.022,inactive: 0.004,inactive: -0.007,inactive: 0.036,inactive: 0.009,inactive: -0.019,inactive: 0.018,inactive: 0.024,inactive: 0.011,inactive: 0.027,inactive: -0.038,inactive: 0.009,inactive: 0.148,inactive: -0.011,inactive: 0.046,inactive: -0.003
LUC7L (UniProt Q9NQ29),inactive: 0.007,inactive: 0.003,inactive: 0.008,inactive: 0.027,inactive: 0.056,inactive: 0.002,inactive: 0.007,inactive: -0.04,inactive: -0.01,inactive: 0.02,inactive: 0.019,inactive: -0.014,inactive: 0.024,inactive: -0.072,inactive: 0.028,inactive: -0.004,inactive: 0.172,inactive: -0.008,inactive: -0.013,inactive: -0.068
MAP3K20 (UniProt Q9NYL2),inactive: -0.192,inactive: -0.015,inactive: 0.009,inactive: -0.01,inactive: 0.004,inactive: -0.004,inactive: 0.049,inactive: -0.211,inactive: -0.031,inactive: -0.005,inactive: 0.034,inactive: 0.014,inactive: 0.009,inactive: 0.048,inactive: -0.026,inactive: 0.042,inactive: 0.05,inactive: -0.108,inactive: 0.111,inactive: 0.045
MAP3K4 (UniProt Q9Y6R4),inactive: 0.046,inactive: 0.19,inactive: 0,inactive: 0.005,inactive: -0.039,inactive: -0.015,inactive: -0.012,inactive: -0.006,inactive: -0.001,inactive: -0.027,inactive: 0.006,inactive: 0.007,inactive: 0.107,inactive: 0.145,inactive: 0.167,inactive: 0.012,inactive: 0.047,inactive: 0.015,inactive: 0.005,inactive: -0.014
MAN2A1 (UniProt Q16706),inactive: -0.04,inactive: 0.013,inactive: 0.043,inactive: 0.017,inactive: 0.016,inactive: -0.001,inactive: 0.037,inactive: -0.008,inactive: 0.044,inactive: 0.019,inactive: 0.025,inactive: -0.026,inactive: 0.007,inactive: 0.01,inactive: 0.02,inactive: 0.009,inactive: -0.04,inactive: -0.044,inactive: 0.011,inactive: 0.034
MAP2K7 isoform 4 (UniProt O14733),active: 1.44,inactive: 0.288,inactive: 0.028,inactive: 0.028,inactive: -0.071,inactive: -0.029,inactive: 0.011,inactive: -0.004,inactive: -0.002,inactive: 0.018,inactive: 0.073,inactive: 0.087,inactive: -0.02,inactive: 0.016,inactive: -0.04,inactive: 0.042,inactive: 0.004,inactive: -0.02,inactive: 0.032,inactive: 0.02
MAP1S (UniProt Q66K74),inactive: -0.008,inactive: -0.026,inactive: 0.004,inactive: -0.041,inactive: -0.005,inactive: 0.011,inactive: -0.021,inactive: 0,inactive: 0.025,inactive: 0.006,inactive: -0.004,inactive: 0.041,inactive: 0.002,inactive: -0.035,inactive: -0.024,inactive: -0.01,inactive: -0.056,inactive: -0.022,inactive: 0.038,inactive: 0.037
MARS2 (UniProt Q96GW9),inactive: 0.004,inactive: 0.018,inactive: 0.008,inactive: -0.048,inactive: 0.014,inactive: 0.017,inactive: -0.05,inactive: -0.033,inactive: -0.022,inactive: 0.007,inactive: 0.021,inactive: -0.004,inactive: -0.009,inactive: 0,inactive: 0.007,inactive: -0.052,inactive: 0.008,inactive: 0.005,inactive: -0.016,inactive: -0.01
LTN1 isoform 3 (UniProt O94822),inactive: -0.036,inactive: 0.018,inactive: 0.016,inactive: -0.066,inactive: 0.079,inactive: 0.001,inactive: -0.009,inactive: -0.018,inactive: 0.075,inactive: 0.019,inactive: 0.005,inactive: 0.022,inactive: 0.034,inactive: -0.06,inactive: -0.041,inactive: -0.004,inactive: 0.035,inactive: -0.106,inactive: 0.04,inactive: 0.03
MARCKSL1 (UniProt P49006),inactive: -0.015,inactive: 0.033,inactive: -0.039,inactive: 0.105,inactive: -0.034,inactive: -0.029,inactive: 0.019,inactive: -0.033,inactive: -0.013,inactive: 0.075,inactive: -0.012,inactive: -0.029,inactive: -0.008,inactive: 0.023,inactive: 0.073,inactive: 0.136,inactive: 0.182,inactive: -0.175,inactive: -0.065,inactive: 0.033
MAPRE3 (UniProt Q9UPY8),inactive: -0.002,inactive: 0.01,inactive: 0.001,inactive: 0.079,inactive: 0.019,inactive: 0.057,inactive: 0.024,inactive: -0.046,inactive: 0.002,inactive: 0.026,inactive: -0.059,inactive: -0.023,inactive: -0.004,inactive: -0.005,inactive: 0.001,inactive: 0.059,inactive: 0.186,inactive: -0.139,inactive: 0.057,inactive: 0
MARS (UniProt P56192),inactive: 0.001,inactive: 0.001,inactive: 0.04,inactive: -0.01,inactive: 0.03,inactive: -0.004,inactive: -0.001,inactive: 0,inactive: 0.045,inactive: 0.012,inactive: 0.042,inactive: 0.005,inactive: -0.005,inactive: -0.079,inactive: -0.069,inactive: 0.028,inactive: -0.041,inactive: -0.02,inactive: 0.009,inactive: 0.023

# A run of entries of the results above, for reference:
Target,log2 fold change (ibrutinib),log2 fold change [1],log2 fold change (ralimetinib),log2 fold change [2],log2 fold change [3],log2 fold change [4],log2 fold change [5],log2 fold change [6],log2 fold change [7],log2 fold change [8],log2 fold change (vemurafenib),log2 fold change [9],log2 fold change (barasertib),log2 fold change [10],log2 fold change (volasertib),log2 fold change [11],log2 fold change [12],log2 fold change [13],log2 fold change (saracatinib),log2 fold change (sotrastaurin)
MAP1S (UniProt Q66K74),inactive: -0.008,inactive: -0.026,inactive: 0.004,inactive: -0.041,inactive: -0.005,inactive: 0.011,inactive: -0.021,inactive: 0,inactive: 0.025,inactive: 0.006,inactive: -0.004,inactive: 0.041,inactive: 0.002,inactive: -0.035,inactive: -0.024,inactive: -0.01,inactive: -0.056,inactive: -0.022,inactive: 0.038,inactive: 0.037
MARS2 (UniProt Q96GW9),inactive: 0.004,inactive: 0.018,inactive: 0.008,inactive: -0.048,inactive: 0.014,inactive: 0.017,inactive: -0.05,inactive: -0.033,inactive: -0.022,inactive: 0.007,inactive: 0.021,inactive: -0.004,inactive: -0.009,inactive: 0,inactive: 0.007,inactive: -0.052,inactive: 0.008,inactive: 0.005,inactive: -0.016,inactive: -0.01
